Taken from: PubChem BioAssay AID1159578 (Peter MacCallum Cancer Centre, 2015)
Shown is a random part of about 18,000 reagents tested. In the full data, about 1,030 (5.7%) are marked active. 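Inactive calls also include pools with fewer than 3300 nuclei, whose migration was not assessed.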 Raw values are not corrected between plates. A number with no mark means an inactive call.

Test: 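Knock-downs that alter how fast lymphatic endothelial cells migrate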 (primary screen)
Cell system: human lymphatic endothelial cells
Knock-down reagent: siRNA pool against human genes, 40 nM
Time to read-out: 48 h after transfection
Detection: 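High-content imaging of dye-stained cells in a scratch assay measures filled wound area and nuclei per well; duplicate means given as ratio to mock and robust z-score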
Scale: migration robust z-score: higher = faster migration into the scratch; migration relative to mock: higher = more scratch area covered than mock; nuclei per well: higher = more cells in the well
Rule for the call: 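Pools averaging fewer than 3300 nuclei are never called; remaining pools count as changed when migration robust z lies outside -2 to 2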
Calls: active = migration changed; inactive = no migration change, or too few cells

no.	Gene	migration robust z-score	migration class with cell-count check	migration relative to mock	nuclei per well, duplicate mean
1	ACADM	-1.53	migration z between -2 and 2; enough cells	0.51	5502
2	FUCA1	1.19	migration z between -2 and 2; enough cells	1.04	4704
3	PBRM1	0.16	migration z between -2 and 2; enough cells	0.92	4854
4	ITPKC	-0.7	migration z between -2 and 2; enough cells	0.67	6554
5	PPARD	-0.13	migration z between -2 and 2; enough cells	0.78	5394
6	GPM6B	-0.24	migration z between -2 and 2; enough cells	0.82	5627
7	ZBTB49	0.44	migration z between -2 and 2; enough cells	1	5662
8	SLC35F5	-0.03	migration z between -2 and 2; enough cells	0.88	6306
9	TRIM33	-0.49	migration z between -2 and 2; enough cells	0.71	5076
10	FLG	-0.48	migration z between -2 and 2; enough cells	0.76	4876
11	CHTF8	0.27	migration z between -2 and 2; enough cells	0.96	6416
12	ITGB8	0.2	migration z between -2 and 2; enough cells	0.84	6181
13	CRISPLD1	0.86	migration z between -2 and 2; enough cells	1.12	7242
14	ELF1	-0.05	migration z between -2 and 2; enough cells	0.8	5280
15	MAEA	-0.34	migration z between -2 and 2; enough cells	0.8	5460
16	SELENOH	0.36	migration z between -2 and 2; enough cells	0.98	6394
17	IRF8	-3.13 (active)	migration z below -2; enough cells	0.2	4754
18	TUBGCP2	0.05	migration z between -2 and 2; enough cells	0.82	4828
19	WNT2B	-0.54	migration z between -2 and 2; enough cells	0.74	6048
20	ZNF280B	0.31	migration z between -2 and 2; enough cells	0.96	4718
21	UBE2A	1.5	migration z between -2 and 2; enough cells	1.09	4792
22	ADGRB2	-0.52	migration z between -2 and 2; enough cells	0.7	6028
23	FAM43B	-0.24	migration z between -2 and 2; enough cells	0.82	4850

Targets above whose gene name starts with P or p (2):
Gene	migration robust z-score	migration class with cell-count check	migration relative to mock	nuclei per well, duplicate mean
PBRM1	0.16	migration z between -2 and 2; enough cells	0.92	4854
PPARD	-0.13	migration z between -2 and 2; enough cells	0.78	5394
